Assay results taken from US8288404B2, “Pyrrolidine GPR40 modulators” (Bristol-Myers Squibb Company, priority 2009, dated 2012).
Where a name gives a salt, the structure may show the parent alone. Some of these results come from one statement about several compounds together.

Chains of the proteins cited; added tags and fusions are not shown.
UniProt O14842, whole entry: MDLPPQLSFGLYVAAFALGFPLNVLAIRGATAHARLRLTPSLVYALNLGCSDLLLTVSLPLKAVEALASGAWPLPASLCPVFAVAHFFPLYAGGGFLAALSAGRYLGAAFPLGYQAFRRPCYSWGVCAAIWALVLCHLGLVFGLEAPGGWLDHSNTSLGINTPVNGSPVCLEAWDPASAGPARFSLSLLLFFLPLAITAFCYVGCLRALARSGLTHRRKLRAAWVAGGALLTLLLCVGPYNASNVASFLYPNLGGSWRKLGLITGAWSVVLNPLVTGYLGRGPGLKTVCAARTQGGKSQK

Target: T1, hGPR40 (Homo sapiens, UniProt O14842)
T1 construct: 3xFLAG; expressed in transfected cells
Assay: FDSS-Based Intracellular Calcium Assay (Human GRP40 In Vitro assay)
Type: cell-based
Procedure: FDSS-Based Intracellular Calcium Assay
Cell lines expressing GPR40 are generated using the pDEST 3xflag gene expression system and are cultured in culture medium comprising the following components: F12 (Gibco #11765), 10% lipid deprived fetal bovine serum, 250 ug/ml zeocin and 500 ug/ml G418. To conduct the fluorescent imaging plate reader (FLIPR)-based calcium flux assay to measure intracellular Ca^2+ response, cells expressing GPR40 are plated on 384 well plates (BD Biocoat #356697) at a density of 20,000 cells/20 ul medium per well in phenol red and serum-free DMEM (Gibco #21063-029) and incubated overnight. Using BD kit #s 80500-310 or -301, the cells are incubated with 20 ul per well of Hank's buffered salt solution with 1.7 mM probenecid and Fluo-3 at 37° C. for 30 minutes. Compounds are dissolved in DMSO and diluted to desired concentrations with assay buffer and added to the cells as 3× solution (20 ul per well). Run fluorescence/luminescence reader FDSS (Hamamatsu) to read intracellular Ca^2+ response.
Table 1 below lists hGPR40 EC50 values measured for the following examples.

Row | Compound | hGRP40 modulating activity
1 | Cc1cccc(COc2ccc(N3CCC[C@H]3CC(=O)O)cc2)c1 [Example 69, (S)-2-(1-(4-(3-methylbenzyloxy)phenyl)pyrrolidin-2-yl)acetic acid] | found having hGRP40 modulating activity
2 | COc1ccc(F)c(-c2ccc(COc3ccc(N4CCC[C@H]4CC(=O)O)cc3)cc2C2=CCCC2(C)C)c1 [Example 70, 2-((2S)-1-(4-((2-(5,5-dimethylcyclopent-1-enyl)-2′-fluoro-5′-methoxybiphenyl-4-yl)methoxy)phenyl)pyrrolidin-2-yl)acetic acid, TFA] | found having hGRP40 modulating activity
3 | COc1ccc(F)c(-c2ccc(COc3cccc(N4CCC[C@H]4CC(=O)O)c3)cc2C2=CCCC2(C)C)c1 [Example 71, 2-((2S)-1-(3-((2-(5,5-dimethylcyclopent-1-enyl)-2′-fluoro-5′-methoxybiphenyl-4-yl)methoxy)phenyl)pyrrolidin-2-yl)acetic acid, TFA] | found having hGRP40 modulating activity
4 | O=C(O)C[C@@H]1C[C@H](C(F)(F)F)CN1c1ccc(Oc2ccccc2F)cc1 [Example 72, 2-((2S,4S)-1-(4-(2-fluorophenoxy)phenyl)-4-(trifluoromethyl)pyrrolidin-2-yl)acetic acid] | found having hGRP40 modulating activity
5 | O=C(O)C[C@H]1C[C@H](C(F)(F)F)CN1c1ccc(Oc2ccccc2F)cc1 [Example 73, 2-((2R,4S)-1-(4-(2-fluorophenoxy)phenyl)-4-(trifluoromethyl)pyrrolidin-2-yl)acetic acid] | found having hGRP40 modulating activity
6 | O=C(O)C[C@@H]1C[C@H](F)CN1c1ccc(Oc2ccccc2F)cc1 [Example 74, 2-((2R,4S)-4-fluoro-1-(4-(2-fluorophenoxy)phenyl)pyrrolidin-2-yl)acetic acid] | found having hGRP40 modulating activity
7 | Cc1ccccc1Oc1cccc(N2CCC[C@H]2CC(=O)O)c1 [Example 75, (S)-2-(1-(3-(o-tolyloxy)phenyl)pyrrolidin-2-yl)acetic acid, TFA] | found having hGRP40 modulating activity
8 | Cc1ccccc1COc1cc(N2CCC[C@H]2CC(=O)O)ccn1 [Example 76, (S)-2-(1-(2-(2-methylbenzyloxy)pyridin-4-yl)pyrrolidin-2-yl)acetic acid, TFA] | found having hGRP40 modulating activity
9 | COc1ccc(F)c(-c2cccc(Oc3ccc(N4CCC[C@H]4CC(=O)O)cc3)c2)c1 [Example 77, (S)-2-(1-(4-(2′-fluoro-5′-methoxybiphenyl-3-yloxy)phenyl)pyrrolidin-2-yl)acetic acid, TFA] | found having hGRP40 modulating activity
10 | Cc1ccccc1Cc1cccc(Oc2ccc(N3CCC[C@H]3CC(=O)O)cc2)c1 [Example 78, (S)-2-(1-(4-(3-(2-methylbenzyl)phenoxy)phenyl)pyrrolidin-2-yl)acetic acid, TFA] | found having hGRP40 modulating activity
11 | O=C(O)C[C@@H]1CCCN1c1ccc(Oc2cccc(Br)c2)cc1 [Example 79, (S)-2-(1-(4-(3-bromophenoxy)phenyl)pyrrolidin-2-yl)acetic acid, TFA] | found having hGRP40 modulating activity
12 | O=C(O)C[C@@H]1CCCN1c1ccc(Oc2cccc(Cc3ccccc3F)c2)cc1 [Example 80, (S)-2-(1-(4-(3-(2-fluorobenzyl)phenoxy)phenyl)pyrrolidin-2-yl)acetic acid, TFA] | found having hGRP40 modulating activity
13 | O=C(O)C[C@@H]1CCCN1c1ccc(Oc2cccc(-c3ccccc3F)c2)cc1 [Example 81, (S)-2-(1-(4-(2′-fluorobiphenyl-3-yloxy)phenyl)pyrrolidin-2-yl)acetic acid, TFA] | found having hGRP40 modulating activity
14 | Cc1cc(COc2ccc(N3CCC[C@H]3CC(=O)O)cc2)ccc1Br [Example 82, (S)-2-(1-(4-(4-bromo-3-methylbenzyloxy)phenyl)pyrrolidin-2-yl)acetic acid, TFA] | found having hGRP40 modulating activity
15 | COc1ccc(F)c(-c2ccc(COc3ccc(N4CCC[C@H]4CC(=O)O)cc3)cc2C)c1 [Example 83, 2-((2S)-1-(4-((2′-fluoro-5′-methoxy-2-methylbiphenyl-4-yl)methoxy)phenyl)pyrrolidin-2-yl)acetic acid, TFA] | found having hGRP40 modulating activity
16 | Cc1cc(COc2ccc(N3CCC[C@H]3CC(=O)O)cc2)ccc1-c1ccccc1F [Example 84, 2-((2S)-1-(4-((2′-fluoro-2-methylbiphenyl-4-yl)methoxy)phenyl)pyrrolidin-2-yl)acetic acid, TFA] | found having hGRP40 modulating activity
17 | COc1cccc(-c2ccc(COc3ccc(N4CCC[C@H]4CC(=O)O)cc3)cc2C)c1 [Example 85, (S)-2-(1-(4-((3′-methoxy-2-methylbiphenyl-4-yl)methoxy)phenyl)pyrrolidin-2-yl)acetic acid, TFA] | found having hGRP40 modulating activity
18 | COc1ccccc1C(c1ccc(N2CCCC2CC(=O)O)cc1)c1ccccc1OC (centres unmarked) [Example 86, 2-(1-(4-(bis(2-methoxyphenyl)methyl)phenyl)pyrrolidin-2-yl)acetic acid] | found having hGRP40 modulating activity
19 | Cc1ccc(Cc2ccc(N3CCCC3CC(=O)O)cc2)c(C)c1 (centres unmarked) [Example 87, 2-(1-(4-(2,4-dimethylbenzyl)phenyl)pyrrolidin-2-yl)acetic acid] | found having hGRP40 modulating activity
20 | Cc1cc(Cl)ccc1Cc1ccc(N2CCCC2CC(=O)O)cc1 (centres unmarked) [Example 88, 2-(1-(4-(4-chloro-2-methylbenzyl)phenyl)pyrrolidin-2-yl)acetic acid] | found having hGRP40 modulating activity
21 | Cc1cc(Cl)ccc1C(=O)c1ccc(N2CCCC2CC(=O)O)cc1 (centres unmarked) [Example 89, 2-(1-(4-(4-chloro-2-methylbenzoyl)phenyl)pyrrolidin-2-yl)acetic acid] | found having hGRP40 modulating activity
22 | CCC(c1ccc(N2CCCC2CC(=O)O)cc1)c1ccccc1C (centres unmarked) [Example 90, 2-(1-(4-(1-o-tolylpropyl)phenyl)pyrrolidin-2-yl)acetic acid] | found having hGRP40 modulating activity
23 | COc1ccc(Oc2ccc(N3CCC[C@H]3CC(=O)O)cc2)c(C)c1 [Example 91, 2-(1-(4-(4-methoxy-2-methylphenoxy)phenyl)pyrrolidin-2-yl)acetic acid] | found having hGRP40 modulating activity
24 | Cc1cccc(Oc2ccc(N3CCCC3CC(=O)O)cc2)c1C (centres unmarked) [Example 92, 2-(1-(4-(2,3-dimethylphenoxy)phenyl)pyrrolidin-2-yl)acetic acid] | found having hGRP40 modulating activity
25 | O=C(O)C[C@@H]1CCCN1c1ccc(CCc2ccccc2)cc1 [Example 93, 2-(1-(4-phenethylphenyl)pyrrolidin-2-yl)acetic acid] | found having hGRP40 modulating activity
26 | Cc1ccc(COc2ccc(N3CCC[C@@H]3CC(=O)O)cc2)cc1 [Example 109] | found having hGRP40 modulating activity
